Among the data in PubChem BioAssay AID1273 (Columbia University Molecular Screening Center, 2008) are normalized cell count values, retold here.

Some of the results follow. Shown are side measurements of this screen, not its main read-out; they come without a call. Most of these compounds were active or inconclusive in the main read-out, so they are no random draw.

The assay can be described thus: inhibitors of insulin promoter-driven GFP, primary screen, imaging, TRM-6 cells (human fetal islet line), eGFP reporter, cell count (AID 1273;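 further: cells exposed to compound for 48 h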). The following applies: measured here: cell count, toxicity, at 2 µM, reporter expression induced with tamoxifen.
For the molecule `CCc1c(C)[nH]c2ccc(C)cc2c1=O`, the normalized cell count was 72%. `CC(C)(C)CC(=O)NCc1ccc(F)cc1` registered a normalized cell count of 26.4%. As for `Cc1cccc(C)c1NC(=O)COC(=O)Cc1ccsc1`, the normalized cell count was 237%. Turning to `CN1C(=O)/C(=C/C=C2\SCCN2C)N(C)C1=S`, the normalized cell count was determined as 83.3%. As for `COc1cc(OC)c(S(=O)(=O)N2CCCCC2)cc1S(=O)(=O)N1CCCCC1`, the normalized cell count was found to be 111%. In turn, `O=C(CCC(=O)c1cccs1)c1cccs1` registered a normalized cell count of 123%.

`C=CCN1CN(S(=O)(=O)c2cccs2)c2nc3ccccc3nc21` displayed a normalized cell count of 103%. Turning to `COc1ccc(CNC(=O)C2CCN(S(=O)(=O)N3CCOCC3)CC2)cc1`, the normalized cell count amounted to 57%.

In turn, `COc1ccc(S(=O)(=O)Nc2ccc(C)cc2)cc1OC` registered a normalized cell count of 108%. Under `Cn1nc(C(=O)NCc2ccco2)c2ccccc2c1=O` stands 87.7%; under `C=CCNc1nc(S(=O)Cc2ccc(C)cc2)nc2c1CCCC2` (centres undefined), 72.6%. Under `CC(=O)c1c(OC(=O)c2ccc(C)cc2)c2ccccc2n1C` stands 0%. The same measure for `CC1Cc2ccccc2N1C(=O)C12CCC(C)(C(=O)C1)C2(C)C` (centres undefined): 105%; for `CC(=O)c1cnc(-c2ccccc2Cl)s1`: 93.3%. `CCOc1ccc(OCCN2CCCCC2)cc1` displayed a normalized cell count of 85.9%. In turn, `COCCNC(=O)/C=C/c1c(Cl)cccc1Cl` registered a normalized cell count of 92.1%. Under `COc1ccc(-c2[nH]ncc2C=O)cc1` stands 131%; under `Cc1ccc(C2=Nc3ccccc3N=C(C(Cl)Cl)C2)cc1`, 139%; under `COC(=O)C1CCN(C(=O)C23CCC(C)(C(=O)O2)C3(C)C)CC1` (centres undefined), 49.9%.

As to `CC(C)Cc1cc(C(=O)NCc2cccs2)no1`, the normalized cell count came out at 65.6%.

In turn, `COc1ccc(C(=O)N/N=C/c2cn[nH]c2-c2ccc(OC)cc2OC)cc1` yielded a normalized cell count of 136%. In the case of `O=C(Nc1ccc2c(c1)OCO2)OCc1ccccc1`, the normalized cell count amounted to 0.54%. Take `CCN(c1ccccc1)S(=O)(=O)c1ccc(C(=O)Nc2nnc(C3CC3)o2)cc1`: the normalized cell count stood at 99.2%.

The molecule `CN(C)c1ccc(NC(=O)COC(=O)c2cc(=O)c3ccccc3o2)cc1` displayed a normalized cell count of 62.8%. The molecule `CCCCn1cnc2c([nH]c3ccccc32)c1=O` returned a normalized cell count of 150%. The molecule `COc1ccc(-c2nc3ccccc3s2)cc1O` showed a normalized cell count of 48.3%. As to `COc1ccc(S(=O)(=O)NCCc2ccc(F)cc2)cc1`, the normalized cell count turned out to be 104%.

For `CCCCn1c(=O)c(CCC(=O)OCC(=O)NCc2ccc(OC)c(OC)c2)nc2ccccc21`, the normalized cell count was 76%.

In the case of `CCOc1ccc(CN(C(=O)c2oc3cc(C)ccc3c2C)C2CCS(=O)(=O)C2)cc1` (centres undefined), the normalized cell count amounted to 45.1%. Molecule `Cn1nccc1CNC(=O)c1c(Cl)cnn1C` displayed a normalized cell count of 123%. `O=C1Nc2cc3c(cc2Sc2ccccc21)OCCO3` came in with a normalized cell count of 75.9%.

Molecule `Cc1nn(-c2ccccc2)c(C)c1N` registered a normalized cell count of 62%.

`COC(=O)Nc1ccc(S(=O)(=O)Nc2ccc(O)cc2)cc1` came in with a normalized cell count of 54.7%. With `CC(C)c1ccccc1NC(=O)Cn1c(-c2ccccc2Cl)nc2ccccc21`, the normalized cell count worked out at 87.2%.

`C#CCNC(=O)/C=C/c1ccc(C)cc1` showed a normalized cell count of 91.7%.

As for `C=CCNc1ncnc2c1[nH]c1ccc(C)cc12`, the normalized cell count was determined as 146%.

Turning to `O=C(CSc1nnc(-c2ccco2)n1-c1ccccc1)NCc1ccco1`, the normalized cell count was 41.2%. `CCOc1ccnc(OCC)c1Br` came in with a normalized cell count of 58%. The same measure for `N#C/C(=C\c1ccc(-c2ccc(S(=O)(=O)N3CCOCC3)cc2)o1)C(=O)NC1CC1`: 108%.

`CCOC(=O)c1sc2nc(C)nc(NCCc3ccccn3)c2c1C` had a normalized cell count of 80.8%.

Turning to `Cc1cccc(-n2ncc3c(Nc4c(C)n(C)n(-c5ccccc5)c4=O)ncnc32)c1`, the normalized cell count came to 31.9%.

`CCc1nnc(NC(=O)CSc2nnc(Cc3ccccc3)n2-c2ccccc2)s1` gave a normalized cell count of 89.9%.

For the molecule `Cc1cc(C(=O)CCl)c(C)n1CCc1ccc(F)cc1`, the normalized cell count was 6.79%. `CCOC(=O)N1CCN(C(=O)CSCC(=O)Nc2nc(-c3ccc(OC)cc3)cs2)CC1` had a normalized cell count of 122%. `N#C/C(=C\c1cccs1)c1nc2ccccc2[nH]1`: the normalized cell count was 151%. Turning to `CC12CC(c3ccccc3O1)C(C(=O)N1CCOCC1)C(=O)N2` (centres undefined), the normalized cell count stood at 114%. In the case of `CCCn1c(SCC(=O)Nc2nc(C)cs2)nnc1-c1cccnc1`, the normalized cell count came out at 139%.

In turn, `O=C(NCc1cccnc1)c1ccc(NC(=O)c2ccco2)cc1` came in with a normalized cell count of 55.7%.

Molecule `CC1(C)Cc2c(sc3c2C2=NCCN2C=N3)CS1` registered a normalized cell count of 195%.

Take `CCN(CC)CCNC(CC(=O)Nc1ccc(Cl)cc1Cl)C(=O)O` (centres undefined): the normalized cell count was found to be 90.4%. The molecule `c1ccc2[nH]c(-c3cscn3)nc2c1` came in with a normalized cell count of 152%.

For the molecule `S=C(Nc1ccccc1)N1CCN(c2ccc(N3CCOCC3)nn2)CC1`, the normalized cell count stood at 123%. Under `Cc1nc2c(-c3ccccc3)c(C)nn2c(C)c1CCC(=O)N1CCOCC1` stands 80.3%.

`COc1ccc(Br)c2oc(S)cc(=O)c12` gave a normalized cell count of 102%. Turning to `O=C(NCc1cccc(Cl)c1)c1cnccn1`, the normalized cell count was 75.1%. With `COc1ccc(-c2nc3ncccn3c2Nc2ccc3c(c2)OCCO3)cc1`, the normalized cell count was found to be 55.3%. `CCN1CCN(c2cc(=O)n(Cc3ccc(F)cc3)c(=O)[nH]2)CC1` showed a normalized cell count of 72.9%.

Turning to `COC(=O)CCc1c(C)[nH]c(C(=O)OCc2ccccc2)c1C`, the normalized cell count was determined as 102%. In turn, `CCN(CC)c1cc2nc(C)n(Cc3ccccc3)c(=O)c2cc1NC(=O)C1CC1` yielded a normalized cell count of 139%.
